According to patent US20240416143A1, “PHOTONIC ANTIMICROBIAL WOUND SURFACE DRESSING” (The General Hospital Corporation, priority 2021, published 2024):
At least one compound was matched to its structure with a doubt left.

What was measured:
MRSA biofilm = experiment: Photoinactivation of 48-hour in vitro biofilms by adjuvant/antibiotic + antimicrobial blue light; type: cell-based, methicillin-resistant Staphylococcus aureus; conditions: 48 h biofilm; aBL 405 nm, 50-250 J/cm^2
Method: (§1) The bacterial suspension was grown in a shaking incubator overnight in BHI broth. Cells were collected by centrifugation at 4,000 rpm for 5 minutes and suspended in PBS at a density of 10^6 CFU/mL. Then, the biofilms were grown for 48 hours (unless otherwise specified) in 96-well microtiter plates as described previously [Ref. 27], with a renewal of the media every 24 hours. Following the 48-hour biofilm growth, fresh 200 μL of PBS with or without menadione in different concentrations were added to the wells and the biofilms were incubated in the dark at 25° C. for 1 hour: 0, 0.5, 1, and 2 μg/mL for MRSA USA300, AF0001, IQ0064; 0, 1, 10, 30 and 50 μg/mL for P. aeruginosa PA01; and 0, 100, and 150 μg/mL for E. coli ATCC 25922. […] The total volume obtained, 600 μL (3 wells), was sonicated using a Branson 2510 Water Bath Sonicator (Marshall Scientific, LLC) for 5 minutes and the CFU was determined by 10-fold serial dilutions in PBS on BHI agar plates. CFU was counted after overnight incubation at 37° C. […]
(§2) A bacterial suspension was grown in a shaking incubator overnight in BHI broth. […] The total volume obtained, 600 μL (3 wells), was sonicated using a Branson 2510 Water Bath Sonicator (Marshall Scientific, LLC) for 5 minutes and the CFU/mL was determined by 10-fold serial dilutions in PBS on BHI agar plates. CFU was counted after overnight incubation at 37° C.

P. aeruginosa biofilm = experiment: as above; type: cell-based, Pseudomonas aeruginosa; conditions: 48 h biofilm; aBL 405 nm, 50-250 J/cm^2
Method: as §1, with “[…];” for “0, 1, 10, 30 and 50 μg/mL for P. aeruginosa PA01;”
as §2

E. coli biofilm = experiment: as above; type: cell-based, Escherichia coli; conditions: 48 h biofilm; aBL 405 nm, 50-250 J/cm^2
Method: as §1, §2

MRSA = experiment: General ROS by DCFH-DA assay in bacteria; type: cell-based, methicillin-resistant Staphylococcus aureus; conditions: blue light at 405 nm
Method: 1.2.9.1 General ROS measured by […] (DCFH-DA) assay: DCF-DA was purchased from Thermofisher. […] The production of ROS by menadione when combined with blue light was measured in the presence and absence of bacteria. The bacteria (MRSA) was grown in BHI broth medium with shaking overnight. Cells were collected by centrifugation at 4,000 rpm for 5 minutes and resuspended in PBS in the stationary growth phase culture of 1×10^8 CFU/mL. The microbial suspension was transferred to a 35×12-mm dish, mixed with 10 μg/mL of menadione, and stained with 10 μM DCFH-DA solution per the manufacturer's instruction. The solutions (with and without bacteria) were irradiated with the blue light at 50 mW/cm^2 and the samples were collected every 15 minutes to be analyzed by Microplate Spectrofluorometer (SPECTRAmax®, Molecular Devices, USA) at λex=495 nm and λem=525 nm. The control and the menadione/dark groups were generated under the same conditions without irradiation.
We investigated the possibility that minocycline and doxycycline might be acting as a photosensitizer. To do so, the production of ROS by minocycline and doxycycline combined with blue light was measured by the ROS probe DCF in MRSA. From FIG. 28, it can be observed that each of minocycline and doxycycline when combined with blue light at 405 nm produced ROS.

| Structure (SMILES) | antimicrobial effect of aBL combined with tetracycline (MRSA biofilm) | antimicrobial effect of aBL combined with tetracycline (P. aeruginosa biofilm) | antimicrobial effect of aBL combined with tetracycline (E. coli biofilm) | ROS production by tetracycline combined with blue light (DCF probe) (MRSA) |
| --- | --- | --- | --- | --- |
| C[C@H]1c2cccc(O)c2C(=O)C2=C(O)[C@]3(O)C(=O)C(C(N)=O)=C(O)[C@@H](N(C)C)[C@@H]3[C@@H](O)[C@@H]21 [doxycycline] | enhancement in antimicrobial effects | enhancement in antimicrobial effects | enhancement in antimicrobial effects | produced ROS |
| CN(C)c1ccc(O)c2c1C[C@H]1C[C@H]3[C@H](N(C)C)C(O)=C(C(N)=O)C(=O)[C@@]3(O)C(O)=C1C2=O [minocycline] | enhancement in antimicrobial effects | enhancement in antimicrobial effects | enhancement in antimicrobial effects | produced ROS |
